Reference: the supplement of paper PMC4604168 (melanoma cell lines)
The other results are listed elsewhere or left out. Many values rest on one well or one pass, so single values are uncertain.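 Cells were imaged in 1,536-well plates, and nuclei stained with an antibody against cleaved PARP were counted against all DNA-stained nuclei to give the apoptosis fraction. Screening doses were chosen to leave most cells alive, and resting and induced cleaved-PARP levels differ strongly between cell lines.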

How the values were obtained:
Test in all cases: cleaved PARP positive nuclei fraction relative to DMSO control; melanoma cells; higher = more apoptosis
Settings in all cases: library dose: low library concentration; 72 h
501Mel = system: 501Mel
A101D = system: A101D
A2058 = system: A2058
A375 = system: A375
C32 = system: C32
CBRC008 = system: CBRC008 (line from a melanoma biopsy)
CBRC013 = system: CBRC013 (line from a melanoma biopsy)
CBRC014 = system: CBRC014 (line from a melanoma biopsy)
CBRC016 = system: CBRC016 (line from a melanoma biopsy)
CBRC017 = system: CBRC017 (line from a melanoma biopsy)

| Compound | cleaved PARP positive nuclei fraction (501Mel) [%] | cleaved PARP positive nuclei fraction (A101D) [%] | cleaved PARP positive nuclei fraction (A2058) [%] | cleaved PARP positive nuclei fraction (A375) [%] | cleaved PARP positive nuclei fraction (C32) [%] | cleaved PARP positive nuclei fraction (CBRC008) [%] | cleaved PARP positive nuclei fraction (CBRC013) [%] | cleaved PARP positive nuclei fraction (CBRC014) [%] | cleaved PARP positive nuclei fraction (CBRC016) [%] | cleaved PARP positive nuclei fraction (CBRC017) [%] |
| --- | --- | --- | --- | --- | --- | --- | --- | --- | --- | --- |
| O=c1[nH]nc(Sc2ncc([N+](=O)[O-])s2)n1-c1ccc2c(c1)OCCO2 + Cn1cncc1[C@@](N)(c1ccc(Cl)cc1)c1ccc2c(c1)c(-c1cccc(Cl)c1)cc(=O)n2C [tipifarnib] (first compound 0.2 µM, partner dose 0.01 µM) | 92.2 | 171 | 86.1 | 96.9 | 99.2 | 163 | 139 | 92.4 | 111 | 201 |
| O=c1[nH]nc(Sc2ncc([N+](=O)[O-])s2)n1-c1ccc2c(c1)OCCO2 + CN(NC(=O)CC(=O)NN(C)C(=S)c1ccccc1)C(=S)c1ccccc1 [STA4783] (first compound 0.2 µM, partner dose 0.006 µM) | 190 | 189 | 101 | 855 | 130 | 2270 | 125 | 444 | 166 | 149 |
| CC[C@]1(O)C[C@H]2CN(CCc3c([nH]c4ccccc34)[C@@](C(=O)OC)(c3cc4c(cc3OC)N(C=O)[C@H]3[C@@](O)(C(=O)OC)[C@H](OC(C)=O)[C@]5(CC)C=CCN6CC[C@]43[C@@H]65)C2)C1 [vincristine] + CO[C@@H]1[C@H](N(C)C(=O)c2ccccc2)C[C@H]2O[C@]1(C)n1c3ccccc3c3c4c(c5c6ccccc6n2c5c31)C(=O)NC4 [Midostaurin] (first compound 0.0001 µM, partner dose 0.08 µM) | 81.6 | 107 | 297 | 97.4 | 212 | 75.3 | 109 | 87.6 | 227 | 126 |
| Cc1cn(-c2cc(NC(=O)c3ccc(C)c(Nc4nccc(-c5cccnc5)n4)c3)cc(C(F)(F)F)c2)cn1 [nilotinib] + Cc1ccc(NC(=O)c2cccc(N(C)C)c2)cc1NC(=O)c1ccc(O)cc1 [ZM336372] (first compound 0.2 µM, partner dose 2 µM) | 222 | 78.2 | 192 | 112 | 171 | 182 | 92 | 120 | 84.8 | 107 |
| Cc1cc(Nc2cc(N3CCN(C)CC3)nc(Sc3ccc(NC(=O)C4CC4)cc3)n2)n[nH]1 [Tozasertib] + NCC(=O)Nc1ccc(-n2nc(C(F)(F)F)cc2-c2ccc3c(ccc4ccccc43)c2)cc1 [OSU03012] (first compound 0.006 µM, partner dose 1 µM) | 159 | 41.6 | 84.7 | 963 | 116 | 58 | 155 | 93.5 | 44.1 | 274 |
| O=c1[nH]nc(Sc2ncc([N+](=O)[O-])s2)n1-c1ccc2c(c1)OCCO2 + CO[C@@H]1[C@H](N(C)C(=O)c2ccccc2)C[C@H]2O[C@]1(C)n1c3ccccc3c3c4c(c5c6ccccc6n2c5c31)C(=O)NC4 [Midostaurin] (first compound 0.2 µM, partner dose 0.08 µM) | 88.9 | 276 | 105 | 64.5 | 46.7 | 164 | 109 | 543 | 235 | 113 |
| Cc1cn(-c2cc(NC(=O)c3ccc(C)c(Nc4nccc(-c5cccnc5)n4)c3)cc(C(F)(F)F)c2)cn1 [nilotinib] + OCCn1cc(-c2cnc3nnn(Cc4ccc5ncccc5c4)c3n2)cn1 [PF04217903] (first compound 0.2 µM, partner dose 1 µM) | 79.2 | 124 | 113 | 138 | 39.6 | 125 | 164 | 77.9 | 106 | 91.6 |
| Cc1cn(-c2cc(NC(=O)c3ccc(C)c(Nc4nccc(-c5cccnc5)n4)c3)cc(C(F)(F)F)c2)cn1 [nilotinib] + CN(C)S(=O)(=O)c1ccc2c(c1)/C(=C/c1cc3c([nH]1)CCCC3)C(=O)N2 [SU6656] (first compound 0.2 µM, partner dose 0.4 µM) | 52.1 | 87.1 | 27.8 | 80 | 106 | 44.7 | 109 | 82.5 | 122 | 87.5 |
| CC[C@]1(O)C[C@H]2CN(CCc3c([nH]c4ccccc34)[C@@](C(=O)OC)(c3cc4c(cc3OC)N(C=O)[C@H]3[C@@](O)(C(=O)OC)[C@H](OC(C)=O)[C@]5(CC)C=CCN6CC[C@]43[C@@H]65)C2)C1 [vincristine] + Cc1cc(N2CCOCC2)cc2[nH]c(-c3c(NC[C@@H](O)c4cccc(Cl)c4)cc[nH]c3=O)nc12 [BMS536924] (first compound 0.0001 µM, partner dose 0.2 µM) | 216 | 125 | 1540 | 258 | 322 | 501 | 198 | 132 | 75.7 | 138 |
| N#CC[C@H](C1CCCC1)n1cc(-c2ncnc3[nH]ccc23)cn1 [ruxolitinib] + CC(C)(C)c1cnc(CSc2cnc(NC(=O)C3CCNCC3)s2)o1 [SNS-032] (first compound 1 µM, partner dose 0.01 µM) | 72.5 | 68.8 | 197 | 74.2 | 106 | 44.5 | 92.5 | 87.6 | 61.7 | 123 |
| O=C(/C=C/c1cccnc1)NCCCCC1CCN(C(=O)c2ccccc2)CC1 + Cn1cncc1[C@@](N)(c1ccc(Cl)cc1)c1ccc2c(c1)c(-c1cccc(Cl)c1)cc(=O)n2C [tipifarnib] (first compound 0.01 µM, partner dose 0.01 µM) | 108 | 286 | 37.9 | 127 | 151 | 3430 | 118 | 91.3 | 560 | 409 |
| COc1cc([C@@H]2c3cc4c(cc3[C@@H](O[C@@H]3O[C@@H]5CO[C@@H](C)O[C@H]5[C@H](O)[C@H]3O)[C@H]3COC(=O)[C@H]23)OCO4)cc(OC)c1O [etoposide] + O=C(CCCCCCC(=O)Nc1ccccc1)NO [vorinostat] (first compound 0.02 µM, partner dose 0.08 µM) | 84.4 | 29.5 | 171 | 43.6 | 22.3 | 47.3 | 148 | 74.5 | 110 | 164 |
| O=C(Nc1cc(C(F)(F)F)cc(C(F)(F)F)c1)c1cc(Cl)ccc1O + O=C(Nc1cccc(Cl)c1)Nc1ncc(CCNc2ncnc3ccsc23)s1 [SNS314] (first compound 0.016 µM, partner dose 0.0008 µM) | 65.5 | 296 | 98.9 | 42.3 | 58.1 | 122 | 92.1 | 80.7 | 165 | 115 |
| O=C(Nc1cc(C(F)(F)F)cc(C(F)(F)F)c1)c1cc(Cl)ccc1O + Cn1cncc1[C@@](N)(c1ccc(Cl)cc1)c1ccc2c(c1)c(-c1cccc(Cl)c1)cc(=O)n2C [tipifarnib] (first compound 0.016 µM, partner dose 0.01 µM) | 97.4 | 604 | 116 | 221 | 44.1 | 55.7 | 139 | 90.5 | 138 | 117 |
| CC[C@]1(O)C[C@H]2CN(CCc3c([nH]c4ccccc34)[C@@](C(=O)OC)(c3cc4c(cc3OC)N(C=O)[C@H]3[C@@](O)(C(=O)OC)[C@H](OC(C)=O)[C@]5(CC)C=CCN6CC[C@]43[C@@H]65)C2)C1 [vincristine] + C[C@@H]1CCN(C(=O)CC#N)C[C@@H]1N(C)c1ncnc2[nH]ccc12 [CP690550] (first compound 0.0001 µM, partner dose 1 µM) | 204 | 154 | 571 | 56.6 | 26.1 | 80.1 | 111 | 65.8 | 94.8 | 71.2 |
| N#CC[C@H](C1CCCC1)n1cc(-c2ncnc3[nH]ccc23)cn1 [ruxolitinib] + CC1(C)NC(=O)N(c2ccc([N+](=O)[O-])c(C(F)(F)F)c2)C1=O [nilutamide] (first compound 1 µM, partner dose 1 µM) | 90 | 79.7 | 70.9 | 78.7 | 76.4 | 286 | 130 | 95 | 70.1 | 87.8 |
| O=c1[nH]nc(Sc2ncc([N+](=O)[O-])s2)n1-c1ccc2c(c1)OCCO2 + OCCn1cc(-c2cnc3nnn(Cc4ccc5ncccc5c4)c3n2)cn1 [PF04217903] (first compound 0.2 µM, partner dose 1 µM) | 73.2 | 76.7 | 78 | 56.7 | 85.3 | 114 | 88.9 | 89.9 | 83.5 | 267 |
| CCCCCCCCCCCCCCCCCCOP(=O)([O-])OC1CC[N+](C)(C)CC1 [Perifosine] + C=CCn1c(=O)c2cnc(Nc3ccc(N4CCN(C)CC4)cc3)nc2n1-c1cccc(C(C)(C)O)n1 [MK1775] (first compound 0.4 µM, partner dose 0.02 µM) | 92.6 | 78.2 | 176 | 2680 | 205 | 45.2 | 112 | 95.4 | 210 | 95 |
| O=C(Nc1cc(C(F)(F)F)cc(C(F)(F)F)c1)c1cc(Cl)ccc1O + COc1cc2c(Oc3ccc4[nH]c(C)cc4c3F)ncnc2cc1OCCCN1CCCC1 [cediranib] (first compound 0.016 µM, partner dose 0.4 µM) | 90.9 | 89 | 302 | 129 | 158 | 61.4 | 98 | 82 | 97.2 | 113 |
| CCCCCCCCCCCCCCCCCCOP(=O)([O-])OC1CC[N+](C)(C)CC1 [Perifosine] + O=C(O)c1ccc(-c2c[nH]c3ncc(-c4ccccc4)cc23)cc1C1CCCC1 [GSK650394] (first compound 0.4 µM, partner dose 0.16 µM) | 91.5 | 38.3 | 101 | 59 | 82.6 | 174 | 85.9 | 90.4 | 61.8 | 112 |

Not a retest: entries from further up.

| Compound | cleaved PARP positive nuclei fraction (501Mel) [%] | cleaved PARP positive nuclei fraction (A101D) [%] | cleaved PARP positive nuclei fraction (A2058) [%] | cleaved PARP positive nuclei fraction (A375) [%] | cleaved PARP positive nuclei fraction (C32) [%] | cleaved PARP positive nuclei fraction (CBRC008) [%] | cleaved PARP positive nuclei fraction (CBRC013) [%] | cleaved PARP positive nuclei fraction (CBRC014) [%] | cleaved PARP positive nuclei fraction (CBRC016) [%] | cleaved PARP positive nuclei fraction (CBRC017) [%] |
| --- | --- | --- | --- | --- | --- | --- | --- | --- | --- | --- |
| N#CC[C@H](C1CCCC1)n1cc(-c2ncnc3[nH]ccc23)cn1 [ruxolitinib] + CC1(C)NC(=O)N(c2ccc([N+](=O)[O-])c(C(F)(F)F)c2)C1=O [nilutamide] (first compound 1 µM, partner dose 1 µM) | 90 | 79.7 | 70.9 | 78.7 | 76.4 | 286 | 130 | 95 | 70.1 | 87.8 |
| O=c1[nH]nc(Sc2ncc([N+](=O)[O-])s2)n1-c1ccc2c(c1)OCCO2 + OCCn1cc(-c2cnc3nnn(Cc4ccc5ncccc5c4)c3n2)cn1 [PF04217903] (first compound 0.2 µM, partner dose 1 µM) | 73.2 | 76.7 | 78 | 56.7 | 85.3 | 114 | 88.9 | 89.9 | 83.5 | 267 |
